This passage reports binding results from patent publication US7078478B2, “Inhibition of the proliferation of cells of the multiple myeloma” (GSF-Forschungszentrum für Umwelt Gesundheit, GmbH, priority 1999, dated 2006).

By UniProt entry, the sequences of proteins in these tests, tags left out. Where a name states a change or a piece, a line headed by the entry shows the natural chain unless it says otherwise. Residues count along the entry.
UniProt P40189: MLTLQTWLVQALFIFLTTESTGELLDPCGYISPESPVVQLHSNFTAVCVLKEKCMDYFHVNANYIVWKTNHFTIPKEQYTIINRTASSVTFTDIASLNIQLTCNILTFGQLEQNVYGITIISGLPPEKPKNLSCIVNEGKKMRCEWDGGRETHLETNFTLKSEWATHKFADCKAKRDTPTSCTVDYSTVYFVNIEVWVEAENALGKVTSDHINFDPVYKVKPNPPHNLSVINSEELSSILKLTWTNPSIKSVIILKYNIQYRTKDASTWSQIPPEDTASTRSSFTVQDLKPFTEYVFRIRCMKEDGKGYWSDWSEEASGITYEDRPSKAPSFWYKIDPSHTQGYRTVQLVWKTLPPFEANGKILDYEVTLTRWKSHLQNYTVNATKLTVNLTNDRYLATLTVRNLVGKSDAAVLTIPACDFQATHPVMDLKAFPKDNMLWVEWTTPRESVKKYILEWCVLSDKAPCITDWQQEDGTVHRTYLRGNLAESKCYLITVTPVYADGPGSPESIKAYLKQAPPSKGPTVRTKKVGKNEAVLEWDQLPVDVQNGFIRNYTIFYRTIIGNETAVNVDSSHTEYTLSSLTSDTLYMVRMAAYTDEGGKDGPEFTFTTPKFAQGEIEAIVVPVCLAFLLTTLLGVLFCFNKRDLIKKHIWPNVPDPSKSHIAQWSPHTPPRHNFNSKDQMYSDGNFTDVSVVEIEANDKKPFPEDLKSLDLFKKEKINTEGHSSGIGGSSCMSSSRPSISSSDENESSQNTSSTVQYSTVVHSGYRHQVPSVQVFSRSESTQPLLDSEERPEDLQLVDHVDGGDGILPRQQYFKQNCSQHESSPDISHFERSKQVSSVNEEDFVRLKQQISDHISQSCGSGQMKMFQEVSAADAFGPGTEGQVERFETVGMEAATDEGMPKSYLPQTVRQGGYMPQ
UniProt P08631, residues 2-526: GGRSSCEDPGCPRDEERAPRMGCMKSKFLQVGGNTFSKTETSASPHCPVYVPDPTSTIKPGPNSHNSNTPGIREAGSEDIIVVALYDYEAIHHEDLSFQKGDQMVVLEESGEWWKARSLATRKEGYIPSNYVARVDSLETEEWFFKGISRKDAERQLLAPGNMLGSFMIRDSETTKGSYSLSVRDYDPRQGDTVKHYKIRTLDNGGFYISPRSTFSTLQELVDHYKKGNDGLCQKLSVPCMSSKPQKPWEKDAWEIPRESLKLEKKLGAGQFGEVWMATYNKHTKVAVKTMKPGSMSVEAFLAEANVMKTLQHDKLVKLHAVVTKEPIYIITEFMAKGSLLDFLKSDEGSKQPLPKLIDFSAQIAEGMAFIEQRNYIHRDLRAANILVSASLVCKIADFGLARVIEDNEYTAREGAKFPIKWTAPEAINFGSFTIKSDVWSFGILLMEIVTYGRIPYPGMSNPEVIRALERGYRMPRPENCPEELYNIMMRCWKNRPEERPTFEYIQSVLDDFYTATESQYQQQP

Assay [1] has as its target T1, wild type erythropoietin receptor-gp130 (Eg) fusion protein (mouse; human) (UniProt P14753+P40189).
T1 sequence (looked up): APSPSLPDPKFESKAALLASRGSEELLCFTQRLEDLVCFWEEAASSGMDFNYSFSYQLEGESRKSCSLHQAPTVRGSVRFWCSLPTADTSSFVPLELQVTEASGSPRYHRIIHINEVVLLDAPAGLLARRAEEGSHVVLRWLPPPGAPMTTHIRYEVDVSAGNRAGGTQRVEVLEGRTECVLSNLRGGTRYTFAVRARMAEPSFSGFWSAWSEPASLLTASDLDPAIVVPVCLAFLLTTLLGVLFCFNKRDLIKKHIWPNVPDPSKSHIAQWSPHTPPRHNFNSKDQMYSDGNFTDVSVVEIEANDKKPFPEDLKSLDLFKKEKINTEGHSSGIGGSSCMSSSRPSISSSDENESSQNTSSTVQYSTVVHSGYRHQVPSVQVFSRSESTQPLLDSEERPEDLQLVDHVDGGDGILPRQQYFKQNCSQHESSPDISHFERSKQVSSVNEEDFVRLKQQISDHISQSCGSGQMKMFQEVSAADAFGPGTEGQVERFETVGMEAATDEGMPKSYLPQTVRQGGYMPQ
In words: co-immunoprecipitation with anti-Hck, anti-His blot, Cos-7 lysates (FIG. 5B).

Assay [2] addresses T1, wild type erythropoietin receptor-gp130 (Eg) fusion protein (mouse; human). In words: co-immunoprecipitation with Hck antibody, anti-His-label blot, Cos-7 cells.

These are yes or no findings as the source states them, for the method shown. Binding seen in cells or lysates may run through a third protein. Some results given as binding are weak or reduced against the parent protein; the word gives no strength. Where a sequence is shown, tags or fusion partners need not be part of it.

In the case of “Hck tyrosine kinase (wild type Hck, expressed from pcDNA3-Hck or pDpuro-Hck) (from UniProt P08631 2-526) (enzyme)”, the binding result in assay [1] and in assay [2] was “binds” throughout.
